In all, about 300,000 compounds went through this assay and about 5,400 (1.8%) were called active. This list was built around the results that the source calls inconclusive (neither active nor inactive); the mix of calls is not that of the screen. The call rests on the fitted dose curve; tested in HEK293 cells. Where the call is inconclusive, the potency comes from a doubtful curve fit.
Assay: qHTS for inhibitors of binding or entry into cells for Marburg Virus
Conditions: Marburg virus pseudotyped entry inhibition, cell reporter; activity change, negative = inhibition: at 37.8 µM (top of the series) unless noted
On the % scale 0 is the no-effect control and ±100 the full control effect; potency means the concentration at half of the fitted maximal effect.

Question: With COc1ccc(NC(=O)c2c(NC(=O)COc3ccccc3)sc3c2CCC(C)C3)cc1 (centres undefined) as the compound, how does the Potency read?
Answer: inconclusive: 14.1 µM [activator, single point]

Question: For CC(NC(=O)Cc1cccs1)C(c1cccs1)N1CCN(c2ccccc2)CC1 (centres undefined), which Potency is on record?
Answer: inconclusive: 6.51 µM [inhibitor, partial curve, poor fit]

Question: Which Potency does the source give for Cc1cc(C)n2c(SCC(=O)Nc3cccc(S(N)(=O)=O)c3)nnc2n1 here?
Answer: inconclusive: 0.316 µM [inhibitor, full curve, poor fit]

Question: Which Potency does the source give for Cc1ccc(NC(=O)c2ccc(OC(=O)CCN3C(=O)c4ccccc4C3=O)cc2)cc1 here?
Answer: inconclusive: 0.355 µM [activator, partial curve, poor fit]

Question: For CCN(CC(=O)Nc1ccccc1C(F)(F)F)C(=O)Cc1ccccc1, which “activity change, negative = inhibition” value is on record?
Answer: inactive: 24.5% [at 46.1 µM]

Question: With COC(=O)C1C(c2ccc(OC)cc2)NC(=O)NC1(O)C(F)(F)Cl (centres undefined) as the compound, how does the Potency read?
Answer: inconclusive: 11.2 µM [inhibitor, partial curve, poor fit]

Question: With CCOc1ccc(CCNC(=O)C2CCN(C(=O)c3cc4sccc4n3CC)CC2)cc1OCC as the compound, how does the Potency read?
Answer: inconclusive: 31.6 µM [inhibitor, partial curve, poor fit]

Question: With COc1cc(-n2nnnc2SCC(=O)N2CCN(c3ccc(F)cc3)CC2)c(OC)cc1Cl as the compound, how does the Potency read?
Answer: inconclusive: 35.5 µM [inhibitor, partial curve, poor fit]

Question: Which “activity change, negative = inhibition” value does the source give for Cc1ccc(NC(=O)CN2CCc3ccccc3C2)cc1S(=O)(=O)N(C)C here?
Answer: inactive: -8.89% [at 46.1 µM]

Question: With O=C(Nc1ccccc1)c1ccc(-c2ccc([N+](=O)[O-])cc2)o1 as the compound, how does the “activity change, negative = inhibition” value read?
Answer: inactive: 14.6% [at 46.1 µM]

Question: With C/C(=C\C(=O)c1cccnc1)Nc1ccc(C(=O)O)cc1 as the compound, how does the “activity change, negative = inhibition” value read?
Answer: inactive: 6.79%

Question: With Cc1ccc(S(=O)(=O)Nc2ccncc2)c(C)c1N(C)S(=O)(=O)c1ccc(F)cc1 as the compound, how does the Potency read?
Answer: inconclusive: 5.62 µM [activator, single point]

Question: For CN(CC(=O)Nc1ccccc1C(F)(F)F)C(=O)c1cc2c(s1)CCCCC2, which Potency is on record?
Answer: inconclusive: 35.5 µM [inhibitor, single point]

Question: With COc1ccc(NC(=O)CC2C(=O)N(C)C(=S)N2CCc2ccc(F)cc2)cc1 (centres undefined) as the compound, how does the Potency read?
Answer: inconclusive: 35.5 µM [inhibitor, single point]

Question: Which “activity change, negative = inhibition” value does the source give for CCN(Cc1cnn(C)c1)Cc1nc(Cc2ccccc2Cl)no1 here?
Answer: inactive: -2.04% [at 46.1 µM]

Question: For Cc1cccc(NS(=O)(=O)c2c(C(=O)N3CCCC3)c(C)n(C)c2C)c1, which “activity change, negative = inhibition” value is on record?
Answer: inactive: 8.78% [at 46.1 µM]

Question: With Cc1ccc(OCCN2C(=O)c3ccccc3C2=O)c(C)c1 as the compound, how does the “activity change, negative = inhibition” value read?
Answer: inactive: -2.8%

Question: With CCC(=O)NC(Nc1ccccn1)(C(=O)OC)C(F)(F)F (centres undefined) as the compound, how does the Potency read?
Answer: inconclusive: 0.708 µM [activator, full curve, poor fit]

Question: For CCCc1cnc(NCCNCC(O)COc2ccc(Cl)c(Cl)c2)nc1 (centres undefined), which Potency is on record?
Answer: inconclusive: 10 µM [inhibitor, partial curve, poor fit]

Question: Which Potency does the source give for O=C(Nc1cccc2ccccc12)c1ccccc1 here?
Answer: inconclusive: 15.8 µM [activator, partial curve, poor fit]

Question: Which Potency does the source give for CCc1c(C(=O)NCCc2cccc(C)c2)[nH]c(C)c1C(C)=O here?
Answer: inconclusive: 1.12 µM [inhibitor, full curve, poor fit]

Question: For CCOC(=O)c1[nH]c2ccc(OC)cc2c1NC(=S)N1CCN(c2ccccc2OC)CC1, which Potency is on record?
Answer: inconclusive: 11.2 µM [inhibitor, partial curve]

Question: For COc1ccc(C(=O)OCCOc2cccc(Cl)c2)cc1S(=O)(=O)N1CCOCC1, which Potency is on record?
Answer: inconclusive: 35.5 µM [inhibitor, single point]

Question: Which Potency does the source give for Cc1ccc(NC(=O)c2csc(-c3ccccc3)c2C)cc1 here?
Answer: active: 13 µM

Question: With NC(=S)N/N=C\c1c2ccccc2cc2ccccc12 as the compound, how does the Potency read?
Answer: inconclusive: 17.8 µM [inhibitor, partial curve, poor fit]

Question: For O=C(Nc1ccc2[nH]ncc2c1)c1ccccc1Br, which Potency is on record?
Answer: inconclusive: 14.1 µM [inhibitor, partial curve, poor fit]

Question: Which Potency does the source give for Cc1cccc(C(=O)Oc2ccc(/C=N/O)cc2)c1 here?
Answer: inconclusive: 3.26 µM [activator, partial curve]

Question: With O=C(NNc1nc2c(F)cc(F)cc2s1)C1=COCCO1 as the compound, how does the “activity change, negative = inhibition” value read?
Answer: inactive: 7.72% [at 46.1 µM]

Question: Which Potency does the source give for O=C(Oc1ccccc1[N+](=O)[O-])c1cccnc1 here?
Answer: inconclusive: 0.1 µM [inhibitor, full curve, poor fit]

Question: For C1CCCCCC2(CCCCC1)OCC(CN1CCOCC1)O2 (centres undefined), which Potency is on record?
Answer: inconclusive: 35.5 µM [inhibitor, single point]

Question: With O=C(OCc1cccc(Cl)c1)c1cc([N+](=O)[O-])ccc1N1CCOCC1 as the compound, how does the Potency read?
Answer: inconclusive: 14.1 µM [inhibitor, single point]

Question: For c1ccc(CCCc2nc(-c3cccnc3)no2)cc1, which “activity change, negative = inhibition” value is on record?
Answer: inactive: -5.3% [at 46.1 µM]

Question: For CCc1cccc(C)c1NC(=O)c1cc(-c2ccncc2)nc2ccccc12, which Potency is on record?
Answer: inconclusive: 2.24 µM [inhibitor, full curve, poor fit]

Question: For NC(=O)C1CCN(C2CC(=O)N(Cc3ccc(N4CCCC4=O)cc3)C2=O)CC1 (centres undefined), which “activity change, negative = inhibition” value is on record?
Answer: inactive: 3%

Question: For CCC(=O)Nc1cccc(C(=O)c2ccc(C)c(C)c2)c1, which Potency is on record?
Answer: inconclusive: 35.5 µM [inhibitor, single point]

Question: For CN1CCC2(CCN3CCc4c(oc5ccccc45)C3C2)N(C)C1=O (centres undefined), which Potency is on record?
Answer: inconclusive: 6.31 µM [inhibitor, full curve]

Question: For CSCC[C@H](NC(=O)COc1ccc(Cl)cc1Cl)c1nc2ccccc2[nH]1, which Potency is on record?
Answer: inconclusive: 31.6 µM [inhibitor, single point]

Question: Which “activity change, negative = inhibition” value does the source give for CCOC(=O)CN(C(=O)CSc1nnc(COc2ccc(OC)cc2)n1CC)c1ccccc1 here?
Answer: inactive: -29.3% [at 46.1 µM]

Question: Which Potency does the source give for Cc1cc(F)ccc1S(=O)(=O)N1CCCOC1CNC(=O)C(=O)NCCC1=CCCCC1 (centres undefined) here?
Answer: inconclusive: 1.26 µM [inhibitor, full curve, poor fit]

Question: For O=C(NCc1cccnc1)Nc1ccc(Cl)cc1, which “activity change, negative = inhibition” value is on record?
Answer: inactive: 16.7% [at 46.1 µM]

Question: With Cc1cccc(C(=O)NNC(=O)c2csc(N3CCOCC3)n2)c1C as the compound, how does the “activity change, negative = inhibition” value read?
Answer: inactive: 2.17%

Question: For O=C(CSc1nc2ncc(Cl)cc2[nH]1)NC1CCS(=O)(=O)C1 (centres undefined), which “activity change, negative = inhibition” value is on record?
Answer: inactive: -4.61% [at 46.1 µM]

Question: Which Potency does the source give for S=C(Nc1cccc2ccccc12)Nc1cccc2ccccc12 here?
Answer: inconclusive: 25.1 µM [inhibitor, single point]

Question: Which Potency does the source give for CCOc1ccc(-c2cc(C(=O)N/N=C(\C)c3cccnc3)c3ccccc3n2)c(OCC)c1 here?
Answer: active: 3.98 µM

From PubChem BioAssay AID540276 (National Center for Advancing Translational Sciences (NCATS), 2011)
